Reference: paper PMC8575788
No constants are given. Whether binding was seen depends on the method and setting. In cells and extracts the contact can be indirect. Some results given as binding are weak or reduced against the parent protein; the word gives no strength. Sequences can lack the tags named with a protein.

Protein sequences, listed by entry. Tags and fused reporters are not part of them.
UniProt Q96QE3: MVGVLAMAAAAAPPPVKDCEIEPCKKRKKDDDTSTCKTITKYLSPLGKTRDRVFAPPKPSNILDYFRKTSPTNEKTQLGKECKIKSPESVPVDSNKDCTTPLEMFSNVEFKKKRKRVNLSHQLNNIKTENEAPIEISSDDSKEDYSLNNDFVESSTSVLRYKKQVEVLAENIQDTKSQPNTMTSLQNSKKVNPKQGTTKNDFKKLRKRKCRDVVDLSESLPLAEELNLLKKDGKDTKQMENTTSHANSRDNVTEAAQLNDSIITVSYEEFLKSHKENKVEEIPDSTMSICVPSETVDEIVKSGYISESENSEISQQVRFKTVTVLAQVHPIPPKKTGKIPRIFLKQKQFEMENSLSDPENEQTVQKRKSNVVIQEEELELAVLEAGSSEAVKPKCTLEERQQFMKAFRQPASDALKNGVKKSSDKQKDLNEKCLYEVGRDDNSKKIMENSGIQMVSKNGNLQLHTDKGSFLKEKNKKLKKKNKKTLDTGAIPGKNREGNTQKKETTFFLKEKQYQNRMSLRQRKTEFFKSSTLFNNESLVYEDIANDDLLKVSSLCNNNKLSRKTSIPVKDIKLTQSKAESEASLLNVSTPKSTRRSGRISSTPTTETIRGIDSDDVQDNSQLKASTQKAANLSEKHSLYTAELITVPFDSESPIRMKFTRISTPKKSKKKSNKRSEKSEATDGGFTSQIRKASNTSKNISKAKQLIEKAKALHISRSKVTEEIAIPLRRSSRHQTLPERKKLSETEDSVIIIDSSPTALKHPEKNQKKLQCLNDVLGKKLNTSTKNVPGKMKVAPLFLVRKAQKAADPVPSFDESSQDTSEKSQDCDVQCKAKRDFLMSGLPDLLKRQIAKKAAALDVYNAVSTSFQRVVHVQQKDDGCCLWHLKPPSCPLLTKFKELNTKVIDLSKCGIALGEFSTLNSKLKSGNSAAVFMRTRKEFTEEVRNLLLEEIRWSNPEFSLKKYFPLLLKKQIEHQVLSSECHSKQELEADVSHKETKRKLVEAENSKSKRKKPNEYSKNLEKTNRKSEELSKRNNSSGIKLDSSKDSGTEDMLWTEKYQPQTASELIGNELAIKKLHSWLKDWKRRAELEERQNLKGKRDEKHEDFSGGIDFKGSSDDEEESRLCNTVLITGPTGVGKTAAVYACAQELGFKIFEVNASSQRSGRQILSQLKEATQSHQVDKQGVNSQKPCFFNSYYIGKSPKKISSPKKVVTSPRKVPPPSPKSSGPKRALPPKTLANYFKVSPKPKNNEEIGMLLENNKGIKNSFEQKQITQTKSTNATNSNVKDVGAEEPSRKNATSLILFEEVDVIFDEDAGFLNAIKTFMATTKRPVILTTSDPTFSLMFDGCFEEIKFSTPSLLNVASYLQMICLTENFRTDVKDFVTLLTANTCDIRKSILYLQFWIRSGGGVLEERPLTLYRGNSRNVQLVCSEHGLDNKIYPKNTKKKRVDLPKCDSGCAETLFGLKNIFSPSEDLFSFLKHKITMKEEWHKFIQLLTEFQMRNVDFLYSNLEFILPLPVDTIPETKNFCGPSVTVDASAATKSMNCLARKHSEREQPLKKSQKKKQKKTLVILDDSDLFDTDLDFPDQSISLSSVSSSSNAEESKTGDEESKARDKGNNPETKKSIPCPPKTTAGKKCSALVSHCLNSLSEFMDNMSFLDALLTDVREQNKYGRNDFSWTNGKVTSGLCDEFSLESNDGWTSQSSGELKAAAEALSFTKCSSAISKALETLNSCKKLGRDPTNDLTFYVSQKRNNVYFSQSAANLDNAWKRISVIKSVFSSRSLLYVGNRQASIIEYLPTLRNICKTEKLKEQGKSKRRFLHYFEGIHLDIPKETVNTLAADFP
UniProt P35249: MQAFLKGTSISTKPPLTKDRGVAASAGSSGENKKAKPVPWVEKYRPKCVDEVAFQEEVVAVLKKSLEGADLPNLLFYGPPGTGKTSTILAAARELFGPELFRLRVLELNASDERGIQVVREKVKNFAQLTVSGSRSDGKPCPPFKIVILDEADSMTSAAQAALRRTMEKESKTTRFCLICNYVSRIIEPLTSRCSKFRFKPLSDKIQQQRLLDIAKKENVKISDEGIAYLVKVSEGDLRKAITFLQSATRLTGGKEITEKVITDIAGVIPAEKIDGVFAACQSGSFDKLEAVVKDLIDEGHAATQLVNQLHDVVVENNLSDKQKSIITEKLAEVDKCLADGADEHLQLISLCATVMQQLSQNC

How the values were obtained:
Assay in all cases: co-IP; HEK293T cells co-transfected with both partners; whole-cell extracts (buffer X: 100 mM Tris-HCl, 250 mM NaCl, 1 mM EDTA, 1% NP-40, Benzonase, sonication) immunoprecipitated with anti-FLAG or anti-HA antibody, immunoblotting
[1] = target: T1, HA-tagged LAP2β (UniProt P42167)
T1 sequence: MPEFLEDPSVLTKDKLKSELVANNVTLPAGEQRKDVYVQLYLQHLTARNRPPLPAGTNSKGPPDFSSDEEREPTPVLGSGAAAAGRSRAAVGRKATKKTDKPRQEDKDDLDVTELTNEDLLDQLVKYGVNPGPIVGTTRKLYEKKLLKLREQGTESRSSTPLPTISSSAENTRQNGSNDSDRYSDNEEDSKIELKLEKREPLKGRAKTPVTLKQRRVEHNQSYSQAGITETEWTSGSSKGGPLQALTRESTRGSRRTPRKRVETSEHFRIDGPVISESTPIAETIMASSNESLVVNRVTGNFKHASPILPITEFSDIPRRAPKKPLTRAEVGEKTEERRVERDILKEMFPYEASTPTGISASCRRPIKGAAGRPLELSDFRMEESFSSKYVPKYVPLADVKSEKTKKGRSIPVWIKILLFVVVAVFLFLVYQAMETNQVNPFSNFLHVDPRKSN

[2] = target: 3xFLAG-tagged ATAD5 (human) (UniProt Q96QE3)
[3] = target: 3xFLAG-tagged RFC4 (UniProt P35249)

Molecule	binding [1]	binding [2]	binding [3]
RFC4 (transiently overexpressed) (from UniProt P35249 1-363)	binds		
HA-tagged LAP2β (protein, UniProt P42167 1-454) MPEFLEDPSVLTKDKLKSELVANNVTLPAGEQRKDVYVQLYLQHLTARNRPPLPAGTNSKGPPDFSSDEEREPTPVLGSGAAAAGRSRAAVGRKATKKTDKPRQEDKDDLDVTELTNEDLLDQLVKYGVNPGPIVGTTRKLYEKKLLKLREQGTESRSSTPLPTISSSAENTRQNGSNDSDRYSDNEEDSKIELKLEKREPLKGRAKTPVTLKQRRVEHNQSYSQAGITETEWTSGSSKGGPLQALTRESTRGSRRTPRKRVETSEHFRIDGPVISESTPIAETIMASSNESLVVNRVTGNFKHASPILPITEFSDIPRRAPKKPLTRAEVGEKTEERRVERDILKEMFPYEASTPTGISASCRRPIKGAAGRPLELSDFRMEESFSSKYVPKYVPLADVKSEKTKKGRSIPVWIKILLFVVVAVFLFLVYQAMETNQVNPFSNFLHVDPRKSN		binds	binds
RFC1 (transiently overexpressed) (protein, UniProt P35251 1-1148) MDIRKFFGVIPSGKKLVSETVKKNEKTKSDEETLKAKKGIKEIKVNSSRKEDDFKQKQPSKKKRIIYDSDSESEETLQVKNAKKPPEKLPVSSKPGKISRQDPVTYISETDEEDDFMCKKAASKSKENGRSTNSHLGTSNMKKNEENTKTKNKPLSPIKLTPTSVLDYFGTGSVQRSNKKMVASKRKELSQNTDESGLNDEAIAKQLQLDEDAELERQLHEDEEFARTLAMLDEEPKTKKARKDTEAGETFSSVQANLSKAEKHKYPHKVKTAQVSDERKSYSPRKQSKYESSKESQQHSKSSADKIGEVSSPKASSKLAIMKRKEESSYKEIEPVASKRKENAIKLKGETKTPKKTKSSPAKKESVSPEDSEKKRTNYQAYRSYLNREGPKALGSKEIPKGAENCLEGLIFVITGVLESIERDEAKSLIERYGGKVTGNVSKKTNYLVMGRDSGQSKSDKAAALGTKIIDEDGLLNLIRTMPGKKSKYEIAVETEMKKESKLERTPQKNVQGKRKISPSKKESESKKSRPTSKRDSLAKTIKKETDVFWKSLDFKEQVAEETSGDSKARNLADDSSENKVENLLWVDKYKPTSLKTIIGQQGDQSCANKLLRWLRNWQKSSSEDKKHAAKFGKFSGKDDGSSFKAALLSGPPGVGKTTTASLVCQELGYSYVELNASDTRSKSSLKAIVAESLNNTSIKGFYSNGAASSVSTKHALIMDEVDGMAGNEDRGGIQELIGLIKHTKIPIICMCNDRNHPKIRSLVHYCFDLRFQRPRVEQIKGAMMSIAFKEGLKIPPPAMNEIILGANQDIRQVLHNLSMWCARSKALTYDQAKADSHRAKKDIKMGPFDVARKVFAAGEETAHMSLVDKSDLFFHDYSIAPLFVQENYIHVKPVAAGGDMKKHLMLLSRAADSICDGDLVDSQIRSKQNWSLLPAQAIYASVLPGELMRGYMTQFPTFPSWLGKHSSTGKHDRIVQDLALHMSLRTYSSKRTVNMDYLSLLRDALVQPLTSQGVDGVQDVVALMDTYYLMKEDFENIMEISSWGGKPSPFSKLDPKVKAAFTRAYNKEAHLTPYSLQAIKASRHSTSPSLDSEYNEELNEDDSQSDEKDQDAIETDAMIKKKTKSSKPSKPEKDKEPRKGKGKSSKK	binds		
